Patent publication US6083915A, “Method for treating liver cancer” (Biomeasure, Inc., priority 1991, dated 2000)
Where two headings read alike, the source gives them in different places. Not every detail of the peptide structures is certain; ends, links or a residue may be inferred.

How the values were obtained:
M5123 hepatoma [1] = test: Subrenal capsule assay, M5123 hepatoma xenografts; type: in vivo, athymic female mice; conditions: s.c., b.i.d.; for Change in Tumor Size / % Test/Control (Test tumor size/Control tumor size × 100): q.d. 1-12; for Change in Tumor Size: day 0 to day 13, mean ± s.e.m.; for % Test/Control (Test tumor size/Control tumor size × 100): day 13
M5123 hepatoma [2] = type: in vivo; conditions: for % Test/Control (Test tumor size/Control tumor size × 100) / Tumor Weight Day 18: q.d. 1-18; for % Test/Control (Test tumor size/Control tumor size × 100) / % Test/Control: day 18; for Tumor Weight Day 18 / Tumor Weight (mg) Day 18: mean ± s.e.m.; for % Test/Control / Tumor Weight (mg) Day 18: 100 μg/inj., q.d. 1-20
From the text: The M5123 hepatoma cells, obtained from Dr. H. P. Morris at the National Cancer Institute, were induced in the Buffalo strain of rats by ingestion of N-(2-fluorenyl-phthalamic acid) and established in serial transplantation. Implantation of the M5123 hepatoma cells in an immunodeficient athymic mouse reproducibly results in progressively growing, lethal tumor.
In contrast to the subrenal capsule assay, in the subcutaneous assay, tumor xenografts are implanted subcutaneously, rather than under the subrenal capsule, and treatment can be initiated at any selected time after the implantation.
In this assay, tumors were implanted subcutaneously in the right flank of athymic female mice and test compounds, BIM-26159, BIM-26187, BIM-26189, BIM-26218, BIM-26223 and BIN-26228, and control were injected subcutaneously in the left flank. For the structures of BIM-26159, BIM-26187, BIM-26189, see "Summary of the Invention" above. The structures of BIM-26223 and BIM-26228 are as follows:
Response of an implanted tumor to the treatment was monitored as follows. The length and width of the tumor were first measured using sensitive Vernier calipers. Tumor weight was then calculated based on the measurements as follows: [length (mm)×width (mm)^2 ]/2 mg. In addition to tumor size or weight, this assay system permits the parameter of "lag time", i.e., the effect of early treatment on the growth potential of tumors to reach a certain size.
In one experiment, thirty two mice were implanted subcutaneously with M5123 hepatoma xenografts on day 0 and randomized into four groups of eight animals per group. The bombesin analog BIM-26159 was administered at 250, 50, 10 μg per injection, S.C., b.i.d.,q.d. 1-18.
In another experiment, we tested the activity of five bombesin analogs, i.e., BIM-26187, BIM-26189, BIM-26218, BIM-26223 and BIM-26228, over a period of 18 days. Forty mice were implanted s.c. with M5123 hepatoma xenografts on day 0, and the randomized into ten animals in the control group and six animals per test group. All compounds were administered at 100 μg per injection, s.c., b.i.d., q.d. 1-18.

[3] = 100 μg per injection, over 18 days

## CC(C)C[C@@H](CN[C@@H](Cc1ccccc1)C(N)=O)NC(=O)[C@H](Cc1c[nH]cn1)NC(=O)CNC(=O)[C@@H](NC(=O)[C@H](C)NC(=O)[C@H](Cc1c[nH]c2ccccc12)NC(=O)[C@H](CCC(N)=O)NC(=O)[C@H](N)Cc1ccc(Cl)cc1)C(C)C [BIM-26159, D-Cpa-Gln-Trp-Ala-Val-Gly-His-Leu-.psi.[CH2 NH]-Phe-NH2]
M5123 hepatoma [1]; 5 μg/inj.
  Change in Tumor Size: 48.19 ± 3.37 omu
  % Test/Control (Test tumor size/Control tumor size × 100): 80%
M5123 hepatoma [1]; 50 μg/inj.
  Change in Tumor Size: 48.62 ± 3.80 omu
  % Test/Control (Test tumor size/Control tumor size × 100): 81%
M5123 hepatoma [1]; 250 μg/inj.
  Change in Tumor Size: 50.63 ± 5.22 omu
  % Test/Control (Test tumor size/Control tumor size × 100): 84%
M5123 hepatoma [1]; all three dosages, 5, 50 and 250 μg/injection, q.d. 1-9, over 13 days
  reduction in the growth of the liver tumor ([100 - % Test/Control]%): about 20%
M5123 hepatoma [2]; 10 μg/inj., s.c., b.i.d.
  % Test/Control (Test tumor size/Control tumor size × 100): 28%
  Tumor Weight Day 18: 712 ± 363 mg
M5123 hepatoma [2]; 50 μg per injection, s.c., b.i.d., q.d. 1-9, over 18 days
  reduction in the growth of the tumor: 75%
M5123 hepatoma [2]; 50 μg/inj., s.c., b.i.d.
  % Test/Control (Test tumor size/Control tumor size × 100): 25%
  Tumor Weight Day 18: 633 ± 204 mg
M5123 hepatoma [2]; 250 μg/inj., s.c., b.i.d.
  % Test/Control (Test tumor size/Control tumor size × 100): 34%
  Tumor Weight Day 18: 838 ± 289 mg

## CC(C)C[C@@H](CN[C@@H](Cc1ccc(Cl)cc1)C(N)=O)NC(=O)[C@H](Cc1c[nH]cn1)NC(=O)CNC(=O)[C@@H](NC(=O)[C@H](C)NC(=O)[C@H](Cc1c[nH]c2ccccc12)NC(=O)[C@H](CCC(N)=O)NC(=O)[C@H](N)Cc1ccccc1)C(C)C [BIM-26189, D-Phe-Gln-Trp-Ala-Val-Gly-His-Leu-.psi.[CH2 NH]-Cpa-NH2]
M5123 hepatoma [2]; [3]
  reduced growth of the implanted hepatoma: 44%
M5123 hepatoma [2]; s.c., b.i.d.
  % Test/Control: 56%
  Tumor Weight (mg) Day 18: 324.9 ± 79.0 mg

## CSCC[C@H](NC(=O)[C@H](CC(C)C)NC(=O)[C@H](Cc1c[nH]cn1)NC(=O)CNC(=O)[C@@H](NC(=O)[C@H](C)NC(=O)[C@H](Cc1c[nH]c2ccccc12)NC(=O)[C@H](CCC(N)=O)NC(=O)[C@H](N)Cc1ccccc1)C(C)C)C(N)=O [BIM-26218, D-Phe-Gln-Trp-Ala-Val-Gly-His-Leu-Met-NH2]
M5123 hepatoma [2]; s.c., b.i.d.
  % Test/Control: 70%
  Tumor Weight (mg) Day 18: 402.8 ± 147.1 mg

## CC(C)C[C@H](NC(=O)[C@H](Cc1ccccc1)NC(=O)[C@H](Cc1c[nH]cn1)NC(=O)CNC(=O)[C@@H](NC(=O)[C@H](C)NC(=O)[C@H](Cc1c[nH]c2ccccc12)NC(=O)[C@H](CCC(N)=O)NC(=O)[C@H](N)Cc1ccccc1)C(C)C)C(N)=O [BIM-26223, D-Phe-Gln-Trp-Ala-Val-Gly-His-Phe-Leu-NH2]
M5123 hepatoma [2]; [3]
  effect on growth of the tumor cells (in words): slightly stimulated growth
M5123 hepatoma [2]; s.c., b.i.d.
  % Test/Control: 125%
  Tumor Weight (mg) Day 18: 722.9 ± 218.5 mg
